Results are given in words; binding and its absence hold for the method and conditions named. Some entries that bind do so weakly or less than the wild type.
Legend:
[1] = target: T1, interferon-gamma receptor subunit 2 (IFN-γR2) (UniProt P38484 28-247, limits assumed); experiment: crystal structure of the hexameric complex
T1 construct: Soluble purified protein (crystallised; analyte in SPR)
T1 sequence (looked up): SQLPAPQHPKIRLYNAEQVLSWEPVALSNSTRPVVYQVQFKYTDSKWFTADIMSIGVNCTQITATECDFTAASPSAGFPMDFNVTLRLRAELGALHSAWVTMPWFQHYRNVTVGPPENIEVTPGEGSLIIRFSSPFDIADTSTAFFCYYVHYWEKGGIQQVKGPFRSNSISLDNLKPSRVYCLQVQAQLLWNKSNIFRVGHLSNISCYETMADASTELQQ

[2] = target: T1, interferon-gamma receptor subunit 2 …; experiment: crystal structure of the hexameric complex (FIG. 1)
[3] = target: T2, interferon-gamma receptor subunit 1 (IFN-γR1) (UniProt P15260); experiment: SPR, Biacore T100; IFN-γ at 50 nM saturating IFN-γR1 captured on SA-chip (about 100 RU)
T2 sequence (looked up): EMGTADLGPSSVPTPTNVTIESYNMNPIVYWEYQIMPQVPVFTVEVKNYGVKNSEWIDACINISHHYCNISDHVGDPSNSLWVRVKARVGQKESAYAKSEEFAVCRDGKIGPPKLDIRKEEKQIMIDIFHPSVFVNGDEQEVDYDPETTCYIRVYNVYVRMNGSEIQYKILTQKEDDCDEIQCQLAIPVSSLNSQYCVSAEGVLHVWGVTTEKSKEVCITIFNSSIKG

[4] = target: wild-type 2:2 IFN-γ/IFN-γR1 intermediate complex (human) (UniProt P15260); experiment: SPR (FIG. 3B)
[5] = target: wild-type 2:2 IFN-γ/IFN-γR1 intermediate complex (human) (UniProt P15260); experiment: SPR, Biacore T100, equilibrium; IFN-γR1 captured on SA-chip, 50 nM IFN-γ in all IFN-γR2 dilutions
[6] = target: wild-type 2:2 IFN-γ/IFN-γR1 intermediate complex (human) (UniProt P15260); experiment: SPR (Biacore T100, equilibrium method); about 100 RU of IFN-γR1 captured on an SA chip; wild-type IFN-γ at 50 nM in all dilutions of IFN-γR2; reference channel with an unrelated cytokine receptor
[7] = target: T2, interferon-gamma receptor subunit 1 (IFN-γR1); experiment: SPR, Biacore T100; mutant IFN-γ at 50 nM saturating IFN-γR1 captured on SA-chip (about 100 RU)

wild-type human interferon-gamma (IFN-γ) (from UniProt P01579 24-156) (ligand)
binding [1]: binds | binding [2]: binds | binding [3]: binds

B1: interferon-gamma receptor subunit 2 (IFN-γR2) (receptor, UniProt P38484 28-247, looked up)
chain: T1 sequence (looked up)
binding [4]: binds | binding [5]: binds | binding [6]: binds

B2: triple IFN-γ mutant having three amino acid substitutions K74A, E75Y, and N83R (ligand)
chain: QDPYVKEAENLKKYFNAGHSDVADNGTLFLGILKNWKEESDRKIMQSQIVSFYFKLFKNFKDDQSIQKSVETIAYDMNVKFFRSNKKKRDDFEKLTNYSVTDLNVQRKAIHELIQVMAELSPAAKTGKRKRSQ
notes: also called IFN-γ (K74A/E75Y/N75R); IFN-γK74A/E75Y/N83A
binding [7]: binds

— patent US20210309707A1 (Stanford University, published 2021)
